The supplement of paper PMC12067093, “Discovery and optimisation of a covalent ligand for TRIM25 and its application to targeted protein ubiquitination” (Chemical Science, 2025)
The other results are listed elsewhere or left out.

Sequences of proteins named here, by UniProt entry; tags and fusion partners are left off. A change or cut given only in a name is not applied to a line headed by its entry.
UniProt Q16531, whole entry, looked up: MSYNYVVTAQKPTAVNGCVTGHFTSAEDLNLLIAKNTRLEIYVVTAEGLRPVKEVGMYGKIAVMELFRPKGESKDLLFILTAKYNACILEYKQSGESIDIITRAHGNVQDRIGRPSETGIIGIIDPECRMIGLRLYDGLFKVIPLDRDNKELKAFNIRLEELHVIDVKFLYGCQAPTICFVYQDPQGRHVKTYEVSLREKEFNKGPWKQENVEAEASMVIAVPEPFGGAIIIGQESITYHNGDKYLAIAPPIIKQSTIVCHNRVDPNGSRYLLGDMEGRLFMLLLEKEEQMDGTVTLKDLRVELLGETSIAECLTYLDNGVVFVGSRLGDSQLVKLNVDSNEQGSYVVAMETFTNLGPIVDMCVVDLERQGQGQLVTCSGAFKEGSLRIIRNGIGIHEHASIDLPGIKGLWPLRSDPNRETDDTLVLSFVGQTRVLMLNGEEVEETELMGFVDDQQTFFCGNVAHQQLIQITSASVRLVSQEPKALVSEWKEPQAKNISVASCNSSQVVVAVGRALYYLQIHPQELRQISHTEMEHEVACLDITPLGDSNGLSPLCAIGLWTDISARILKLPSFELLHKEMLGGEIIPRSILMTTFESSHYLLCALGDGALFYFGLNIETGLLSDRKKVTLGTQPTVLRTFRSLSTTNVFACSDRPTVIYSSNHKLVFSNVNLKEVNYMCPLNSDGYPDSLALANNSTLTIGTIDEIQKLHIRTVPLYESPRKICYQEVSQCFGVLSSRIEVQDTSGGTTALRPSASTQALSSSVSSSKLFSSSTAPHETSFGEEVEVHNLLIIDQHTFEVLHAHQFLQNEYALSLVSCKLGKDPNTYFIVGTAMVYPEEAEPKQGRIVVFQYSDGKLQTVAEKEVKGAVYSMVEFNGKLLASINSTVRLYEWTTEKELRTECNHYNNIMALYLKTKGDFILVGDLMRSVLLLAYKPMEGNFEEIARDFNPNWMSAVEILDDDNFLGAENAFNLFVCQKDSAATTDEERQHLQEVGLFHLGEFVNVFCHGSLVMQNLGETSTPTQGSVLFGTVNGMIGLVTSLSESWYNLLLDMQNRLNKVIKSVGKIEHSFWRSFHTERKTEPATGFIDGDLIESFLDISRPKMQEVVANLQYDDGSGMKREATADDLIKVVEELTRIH
UniProt P26196: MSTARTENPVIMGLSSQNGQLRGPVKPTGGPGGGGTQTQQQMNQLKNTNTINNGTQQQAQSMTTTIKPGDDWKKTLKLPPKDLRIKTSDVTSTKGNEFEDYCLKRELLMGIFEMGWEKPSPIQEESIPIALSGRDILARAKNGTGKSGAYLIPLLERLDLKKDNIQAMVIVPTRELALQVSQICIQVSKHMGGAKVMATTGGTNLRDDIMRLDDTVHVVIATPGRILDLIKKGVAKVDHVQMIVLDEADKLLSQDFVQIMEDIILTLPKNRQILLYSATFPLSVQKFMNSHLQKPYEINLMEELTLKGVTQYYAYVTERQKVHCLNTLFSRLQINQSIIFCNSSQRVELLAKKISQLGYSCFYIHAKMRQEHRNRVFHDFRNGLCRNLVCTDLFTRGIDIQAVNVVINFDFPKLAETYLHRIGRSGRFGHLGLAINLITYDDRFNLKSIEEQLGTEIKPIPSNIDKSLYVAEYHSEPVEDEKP
UniProt Q96GQ7: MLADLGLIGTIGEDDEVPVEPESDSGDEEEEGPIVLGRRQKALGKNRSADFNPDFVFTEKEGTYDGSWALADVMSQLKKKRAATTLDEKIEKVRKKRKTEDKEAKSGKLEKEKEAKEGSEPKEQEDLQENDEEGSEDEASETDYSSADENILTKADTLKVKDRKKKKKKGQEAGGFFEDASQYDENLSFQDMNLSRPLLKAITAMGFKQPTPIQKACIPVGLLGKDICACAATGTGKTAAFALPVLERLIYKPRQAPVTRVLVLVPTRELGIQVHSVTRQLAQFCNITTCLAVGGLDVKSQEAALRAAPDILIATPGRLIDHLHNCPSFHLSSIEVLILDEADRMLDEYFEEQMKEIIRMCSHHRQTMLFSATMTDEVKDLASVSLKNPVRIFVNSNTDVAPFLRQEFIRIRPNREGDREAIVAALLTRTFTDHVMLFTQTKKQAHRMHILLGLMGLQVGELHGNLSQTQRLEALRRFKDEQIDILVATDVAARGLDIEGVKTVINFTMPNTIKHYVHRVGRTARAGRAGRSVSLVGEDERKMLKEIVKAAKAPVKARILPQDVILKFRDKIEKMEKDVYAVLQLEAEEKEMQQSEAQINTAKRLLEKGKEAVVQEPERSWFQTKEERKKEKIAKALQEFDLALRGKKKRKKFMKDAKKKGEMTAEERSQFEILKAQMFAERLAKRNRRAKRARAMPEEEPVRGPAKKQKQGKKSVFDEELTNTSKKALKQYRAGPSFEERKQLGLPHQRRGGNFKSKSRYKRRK
UniProt Q9H4E7, whole entry, looked up: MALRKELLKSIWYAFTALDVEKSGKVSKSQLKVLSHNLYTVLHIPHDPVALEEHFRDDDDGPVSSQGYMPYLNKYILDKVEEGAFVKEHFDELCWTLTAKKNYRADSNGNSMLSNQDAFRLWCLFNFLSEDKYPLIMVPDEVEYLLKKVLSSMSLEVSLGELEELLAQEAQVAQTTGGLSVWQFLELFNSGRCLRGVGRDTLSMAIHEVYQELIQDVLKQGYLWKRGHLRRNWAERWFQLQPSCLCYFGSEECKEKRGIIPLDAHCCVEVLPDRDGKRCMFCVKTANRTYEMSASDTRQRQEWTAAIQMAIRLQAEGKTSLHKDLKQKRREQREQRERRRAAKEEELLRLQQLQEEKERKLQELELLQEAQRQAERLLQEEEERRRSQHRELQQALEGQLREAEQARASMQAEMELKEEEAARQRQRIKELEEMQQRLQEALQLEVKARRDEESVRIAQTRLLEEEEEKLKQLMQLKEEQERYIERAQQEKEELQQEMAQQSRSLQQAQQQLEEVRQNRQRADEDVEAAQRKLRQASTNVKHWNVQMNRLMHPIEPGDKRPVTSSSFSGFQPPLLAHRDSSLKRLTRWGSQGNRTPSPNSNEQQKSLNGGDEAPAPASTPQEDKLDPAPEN
UniProt Q16698: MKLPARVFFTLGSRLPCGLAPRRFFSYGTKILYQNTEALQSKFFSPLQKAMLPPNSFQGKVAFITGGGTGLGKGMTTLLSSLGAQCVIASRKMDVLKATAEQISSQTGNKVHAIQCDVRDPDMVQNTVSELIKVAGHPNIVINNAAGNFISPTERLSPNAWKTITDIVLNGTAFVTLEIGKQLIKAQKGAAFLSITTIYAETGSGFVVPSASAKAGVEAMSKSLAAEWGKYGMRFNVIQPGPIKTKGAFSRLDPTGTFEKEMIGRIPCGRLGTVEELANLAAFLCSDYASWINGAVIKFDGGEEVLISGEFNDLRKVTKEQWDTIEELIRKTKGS
UniProt Q8TB45, whole entry: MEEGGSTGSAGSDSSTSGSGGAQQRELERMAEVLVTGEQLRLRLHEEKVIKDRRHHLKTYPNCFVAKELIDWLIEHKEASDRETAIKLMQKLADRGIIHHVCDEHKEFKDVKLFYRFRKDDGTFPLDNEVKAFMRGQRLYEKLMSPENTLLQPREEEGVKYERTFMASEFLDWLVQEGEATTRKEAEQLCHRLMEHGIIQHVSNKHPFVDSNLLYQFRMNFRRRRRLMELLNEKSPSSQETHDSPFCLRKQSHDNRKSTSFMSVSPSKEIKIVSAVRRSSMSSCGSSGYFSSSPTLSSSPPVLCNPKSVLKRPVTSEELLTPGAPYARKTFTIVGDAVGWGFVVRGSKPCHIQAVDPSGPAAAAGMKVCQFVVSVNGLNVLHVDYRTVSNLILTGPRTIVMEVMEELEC
UniProt Q7L014: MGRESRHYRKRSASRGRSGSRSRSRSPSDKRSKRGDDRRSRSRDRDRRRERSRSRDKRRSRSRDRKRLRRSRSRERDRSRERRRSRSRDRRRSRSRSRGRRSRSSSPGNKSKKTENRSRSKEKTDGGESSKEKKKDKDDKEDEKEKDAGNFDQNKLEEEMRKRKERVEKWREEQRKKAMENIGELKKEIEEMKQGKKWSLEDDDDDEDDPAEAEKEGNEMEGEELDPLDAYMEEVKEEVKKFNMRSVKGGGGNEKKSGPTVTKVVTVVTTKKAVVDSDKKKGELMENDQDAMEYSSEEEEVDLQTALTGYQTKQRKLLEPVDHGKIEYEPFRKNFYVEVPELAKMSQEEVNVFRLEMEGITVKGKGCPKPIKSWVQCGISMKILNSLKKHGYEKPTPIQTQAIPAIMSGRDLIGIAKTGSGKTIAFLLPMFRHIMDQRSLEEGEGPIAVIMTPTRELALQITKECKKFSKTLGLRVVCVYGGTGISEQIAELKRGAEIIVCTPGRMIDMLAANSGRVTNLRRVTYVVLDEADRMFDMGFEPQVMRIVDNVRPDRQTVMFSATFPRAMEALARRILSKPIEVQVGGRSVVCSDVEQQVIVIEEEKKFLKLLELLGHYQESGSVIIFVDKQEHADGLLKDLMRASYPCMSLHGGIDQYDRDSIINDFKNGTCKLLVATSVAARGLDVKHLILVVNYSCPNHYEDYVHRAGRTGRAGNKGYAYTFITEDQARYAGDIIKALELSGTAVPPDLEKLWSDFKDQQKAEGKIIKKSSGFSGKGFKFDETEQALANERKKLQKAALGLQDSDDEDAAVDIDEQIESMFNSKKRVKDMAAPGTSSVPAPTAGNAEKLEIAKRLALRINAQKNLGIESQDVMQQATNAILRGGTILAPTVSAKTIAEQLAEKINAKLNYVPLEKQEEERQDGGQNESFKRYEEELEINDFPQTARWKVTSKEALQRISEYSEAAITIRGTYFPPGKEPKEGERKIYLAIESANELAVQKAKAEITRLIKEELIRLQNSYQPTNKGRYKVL
UniProt A2RUS2: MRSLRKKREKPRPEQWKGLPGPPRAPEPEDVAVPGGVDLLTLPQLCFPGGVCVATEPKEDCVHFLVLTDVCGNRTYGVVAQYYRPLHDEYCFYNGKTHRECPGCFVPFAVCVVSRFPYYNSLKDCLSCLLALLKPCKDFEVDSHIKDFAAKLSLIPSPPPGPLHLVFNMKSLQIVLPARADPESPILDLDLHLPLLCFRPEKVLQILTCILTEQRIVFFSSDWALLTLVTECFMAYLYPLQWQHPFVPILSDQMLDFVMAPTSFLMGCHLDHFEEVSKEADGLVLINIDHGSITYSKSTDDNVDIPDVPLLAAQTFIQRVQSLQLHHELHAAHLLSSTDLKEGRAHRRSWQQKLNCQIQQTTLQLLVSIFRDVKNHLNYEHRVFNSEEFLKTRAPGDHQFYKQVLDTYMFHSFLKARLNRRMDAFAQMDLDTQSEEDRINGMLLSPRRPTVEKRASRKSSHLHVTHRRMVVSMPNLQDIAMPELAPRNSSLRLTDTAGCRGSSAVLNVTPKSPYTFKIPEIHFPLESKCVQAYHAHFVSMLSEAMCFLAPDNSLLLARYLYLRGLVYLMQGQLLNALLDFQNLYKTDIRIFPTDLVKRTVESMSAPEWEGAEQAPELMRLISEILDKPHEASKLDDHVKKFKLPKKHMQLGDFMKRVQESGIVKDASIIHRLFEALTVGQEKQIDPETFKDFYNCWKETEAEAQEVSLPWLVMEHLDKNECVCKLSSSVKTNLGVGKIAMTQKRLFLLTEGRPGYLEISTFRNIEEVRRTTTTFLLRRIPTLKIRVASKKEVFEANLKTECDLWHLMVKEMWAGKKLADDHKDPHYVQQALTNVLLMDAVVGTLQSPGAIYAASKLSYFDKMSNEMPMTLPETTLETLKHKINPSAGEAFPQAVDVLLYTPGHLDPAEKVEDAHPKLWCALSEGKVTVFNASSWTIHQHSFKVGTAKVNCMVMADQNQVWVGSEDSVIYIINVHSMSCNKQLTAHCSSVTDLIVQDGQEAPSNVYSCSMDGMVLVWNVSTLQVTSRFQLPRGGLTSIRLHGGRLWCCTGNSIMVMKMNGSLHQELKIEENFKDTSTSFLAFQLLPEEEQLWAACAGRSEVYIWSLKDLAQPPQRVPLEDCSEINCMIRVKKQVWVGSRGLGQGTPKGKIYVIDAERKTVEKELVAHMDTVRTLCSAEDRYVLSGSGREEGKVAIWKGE
UniProt O00148, whole entry, looked up: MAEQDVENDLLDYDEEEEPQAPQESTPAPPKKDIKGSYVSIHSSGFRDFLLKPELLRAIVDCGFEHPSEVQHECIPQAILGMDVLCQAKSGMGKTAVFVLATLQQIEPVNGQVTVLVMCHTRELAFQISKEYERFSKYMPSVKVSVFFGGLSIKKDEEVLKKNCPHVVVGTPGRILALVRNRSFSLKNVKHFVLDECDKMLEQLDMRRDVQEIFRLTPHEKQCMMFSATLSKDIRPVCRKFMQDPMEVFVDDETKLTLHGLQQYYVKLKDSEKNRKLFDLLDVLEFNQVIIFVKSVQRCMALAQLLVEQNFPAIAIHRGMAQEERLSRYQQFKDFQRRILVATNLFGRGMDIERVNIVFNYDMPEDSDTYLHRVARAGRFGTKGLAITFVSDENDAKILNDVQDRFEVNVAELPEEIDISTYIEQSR

Compound: CC1Cc2ccccc2N1C(=O)C1CCCN(C1)C(=O)CCl (mixture of isomers) [TRIM25 ligand 11 (diastereomer mixture)]
Test: probe-labelled cysteine peptide fold change vs DMSO (competition) (log2 fold change); higher = less target engagement (more negative = stronger competition)
Settings: THP-1, incubation time: 4 h
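Note: competitive chemoproteomic profiling in live THP-1 cells with an iodoacetamide desthiobiotin (IA-DTB) probe, comparing probe-labelled peptide intensities in compound-treated cells against DMSO-treated controls.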

Target	probe-labelled cysteine peptide fold change (10 µM)	probe-labelled cysteine peptide fold change (50 µM)
DGCR8_Q8WYQ5_657_SEYVMACGK (UniProt Q8WYQ5)	-0.121	-0.101
DDB1_Q16531_260_QSTIVCHNR (UniProt Q16531)	0.00141	-0.00159
DDX23_Q9BUQ8_677_GCDVLAK (UniProt Q9BUQ8)	-0.081	-0.0204
DGKH_Q86XP1_1014_ICDAATIHCLLEQELAHAVNACSHALNK (UniProt Q86XP1)	0.0915	-0.00443
DDX6_P26196_361_KISQLGYSCFYIHAK (UniProt P26196)	-0.0327	0.083
DDX27_Q96GQ7_259_DICACAATGTGK (UniProt Q96GQ7)	-0.0135	0.0172
DEF6_Q9H4E7_246_WFQLQPSCLCYFGSEECK (UniProt Q9H4E7)	-0.0358	0.14
DGKZ_Q13574_876_EASVPLGTVVVPGDSDLELCR (UniProt Q13574)	0.514	0.581
DDX56_Q9NY93_185_SLLCHLPR (UniProt Q9NY93)	0.556	0.332
DEF6_Q9H4E7_266_RGIIPLDAHCCVEVLPDRDGK (UniProt Q9H4E7)	0.117	0.347
DDX17_Q92841_431_CDDLTR (UniProt Q92841)	-0.0934	-0.0816
DEK_P35659_161_SICEVLDLER (UniProt P35659)	0.0341	0.262
DECR1_Q16698_116_VHAIQCDVRDPDMVQNTVSELIK (UniProt Q16698)	0.00711	0.0301
DGKA_P23743_432_ILVCGGDGTVGWILETIDK (UniProt P23743)	-0.0114	0.00463
DDX24_Q9GZR7_467_CLVVDEADR (UniProt Q9GZR7)	0.1	0.105
DEPTOR_Q8TB45_102_GIIHHVCDEHK (UniProt Q8TB45)	0.0822	-0.181
DDX60L_Q5H9U9_1201_ILEISEDCTYADVK (UniProt Q5H9U9)	0.301	0.00526
DDX46_Q7L014_501_RGAEIIVCTPGR (UniProt Q7L014)	0.161	0.296
DDX24_Q9GZR7_599_SLVFANSISCIK (UniProt Q9GZR7)	0.479	0.567
DENND4B_O75064_180_GEGTPHTYCR (UniProt O75064)	0.0109	0.131

Target	probe-labelled cysteine peptide fold change (10 µM)	probe-labelled cysteine peptide fold change (50 µM)
DENND1A_Q8TEH3_459_DIAENGCAPTPEEQLPK (UniProt Q8TEH3)	-0.0198	-0.195
DERA_Q9Y315_118_AAGCNIPVASVAAGFPAGQTHLK (UniProt Q9Y315)	0.0276	0.101
DDX6_P26196_341_LQINQSIIFCNSSQR (UniProt P26196)	-0.0622	0.121
DENND4A_Q7Z401_648_DASLAFFDDCVDK (UniProt Q7Z401)	0.218	0.0203
DDX5_P17844_170_GDGPICLVLAPTR (UniProt P17844)	0.079	0.298
DDX52_Q9Y2R4_342_TGFRDQLASIFLACTSHK (UniProt Q9Y2R4)	-0.189	0.0165
DGKQ_P52824_638_LLNPHQVFDLTNGGPLPGLHLFSQVPCFR (UniProt P52824)	-0.286	-0.194
DDX1_Q92499_145_HYYEVSCHDQGLCR (UniProt Q92499)	0.228	-0.108
DENND3_A2RUS2_1174_TLCSAEDRYVLSGSGR (UniProt A2RUS2)	-0.113	-0.0819
DDX39A_O00148_223_QCMMFSATLSK (UniProt O00148)	-0.114	-0.0857
DDX46_Q7L014_646_ASYPCMSLHGGIDQYDR (UniProt Q7L014)	0.163	-0.0545
DDX17_Q92841_397_DYTQINVGNLELSANHNILQIVDVCMESEK (UniProt Q92841)	0.127	-0.164
DCXR_Q7Z4W1_150_AVTNHSVYCSTK (UniProt Q7Z4W1)	0.0419	0.15
DENND4C_Q5VZ89_1113_TCMSESTWNPEHR (UniProt Q5VZ89)	0.116	0.024
DGKZ_Q13574_713_IQDLKPQCVVFLNIPR (UniProt Q13574)	-0.0674	0.057
DDX46_Q7L014_590_SVVCSDVEQQVIVIEEEKK (UniProt Q7L014)	-0.0837	-0.0804
DDB1_Q16531_725+732_KICYQEVSQCFGVLSSR (UniProt Q16531)	-0.109	-0.26
DDX27_Q96GQ7_261_DICACAATGTGK (UniProt Q96GQ7)	0.0314	0.129
DENND3_A2RUS2_499_LTDTAGCR (UniProt A2RUS2)	0.00569	-0.0235
DECR1_Q16698_86_GMTTLLSSLGAQCVIASR (UniProt Q16698)	-0.0485	0.022

Quoted at random: two entries already listed.
Target	probe-labelled cysteine peptide fold change (10 µM)	probe-labelled cysteine peptide fold change (50 µM)
DDX39A_O00148_223_QCMMFSATLSK (UniProt O00148)	-0.114	-0.0857
DDX6_P26196_341_LQINQSIIFCNSSQR (UniProt P26196)	-0.0622	0.121
